Measurements reported in PubChem BioAssay AID1259424 (University of Nebraska Medical Center, 2018)
The whole screen tested about 14,000 reagents; below is an unselected part. 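Higher correlation or smaller distance means closer resemblance to KSR1 loss; control wells, including KSR1 knockdowns, recur on many plates.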 Reagent sequences are not shown. Not given: the time to read-out.

Test: 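Find knockdowns that reproduce the expression shifts seen after KSR1 loss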 (primary screen)
Cell system: human HCT116 colon cancer cells
Reagents: siRNA pool against human genes, 50 nM
Measurement: 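Log2 levels of six mRNAs (branched-DNA multiplex), adjusted by two reference genes and the non-targeting median, then scored against the average KSR1 knockdown pattern as Pearson r and euclidean distance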
Reading the numbers: mean correlation with KSR1 profile and KSR1 correlation: higher = expression change more like KSR1 knockdown; mean distance from KSR1 profile: higher = expression change less like KSR1 knockdown

| gene knocked down | PubChem SID | mean correlation with KSR1 profile | mean distance from KSR1 profile | KSR1 correlation, replicate 1 | KSR1 correlation, replicate 2 | KSR1 correlation, replicate 3 |
| --- | --- | --- | --- | --- | --- | --- |
| OSTF1 (osteoclast stimulating factor 1) | SID363998271 | -0.499 | 2.82 | -0.438 | -0.58 | -0.499 |
| RBM27 (RNA binding motif protein 27) | SID364005375 | -0.646 | 3.3 | -0.571 | -0.823 | -0.587 |
| PMCH (pro-melanin concentrating hormone) | SID363993840 | 0.209 | 2.21 | 0.473 | 0.246 | -0.144 |
| BRMS1L (BRMS1 like transcriptional repressor) | SID364003936 | 0.287 | 2.2 | -0.04 | 0.447 | 0.547 |
| MANF (mesencephalic astrocyte derived neurotrophic factor) | SID363996863 | -0.406 | 1.84 | -0.2 | -0.586 | -0.442 |
| UBP1 (upstream binding protein 1) | SID363998919 | -0.317 | 3.18 | -0.101 | -0.505 | -0.191 |
| PSG11 (pregnancy specific beta-1-glycoprotein 11) | SID363993942 | 0.696 | 1.44 | 0.835 | 0.633 | 0.599 |
| SDCCAG8 (SHH signaling and ciliogenesis regulator SDCCAG8) | SID363997430 | -0.018 | 1.49 | 0.224 | -0.243 | 0.0199 |
| KIN (Kin17 DNA and RNA binding protein) | SID363998223 | 0.837 | 1.33 | 0.747 | 0.823 | 0.772 |
| MRTO4 (MRT4 homolog, ribosome maturation factor) | SID363999932 | -0.331 | 2.37 | -0.224 | -0.374 | -0.349 |
| GLRX3 (glutaredoxin 3) | SID363997334 | -0.328 | 1.99 | -0.144 | -0.415 | -0.604 |
| GPR27 (G protein-coupled receptor 27) | SID364001295 | -0.686 | 3.32 | -0.802 | -0.418 | 0.705 |
| ERO1A (endoplasmic reticulum oxidoreductase 1 alpha) | SID363998956 | 0.0476 | 1.11 | 0.128 | -0.197 | -0.117 |
| SMARCC1 (SWI/SNF related BAF chromatin remodeling complex subunit C1) | SID363994219 | -0.291 | 4.73 | -0.308 | -0.302 | -0.122 |
| LGI1 (leucine rich glioma inactivated 1) | SID363996033 | -0.378 | 2.39 | -0.404 | -0.64 | -0.491 |
| ACSF2 (acyl-CoA synthetase family member 2) | SID364003277 | 0.666 | 1.33 | 0.697 | 0.75 | 0.611 |
| UBA6 (ubiquitin like modifier activating enzyme 6) | SID364000894 | -0.69 | 5.58 | -0.187 | -0.339 | -0.509 |
| KCNK4 (potassium two pore domain channel subfamily K member 4) | SID364000235 | -0.323 | 2.31 | 0.055 | -0.342 | -0.496 |
| FOXL2 (forkhead box L2) | SID364002628 | -0.141 | 2.84 | -0.12 | -0.303 | -0.0613 |
| RHBDD3 (rhomboid domain containing 3) | SID363998187 | -0.521 | 3.54 | -0.316 | -0.565 | -0.576 |
| AMFR (autocrine motility factor receptor) | SID363992436 | -0.582 | 2.63 | -0.508 | -0.664 | -0.427 |
| NRXN2 (neurexin 2) | SID363999292 | -0.604 | 2.3 | -0.464 | -0.607 | -0.527 |
| GLUL (glutamate-ammonia ligase) | SID363993272 | 0.104 | 1.68 | 0.147 | -0.158 | -0.0464 |
| PLEKHA5 (pleckstrin homology domain containing A5) | SID364001329 | 0.591 | 1.6 | 0.38 | 0.624 | 0.453 |
| EVC (EvC ciliary complex subunit 1) | SID363998933 | -0.809 | 1.77 | -0.547 | -0.915 | -0.829 |
| KCNG2 | SID363998200 | -0.89 | 2.45 | -0.835 | -0.869 | -0.939 |
| COG1 (component of oligomeric golgi complex 1) | SID364001200 | -0.414 | 4.47 | -0.473 | -0.314 | -0.312 |
| HLA-DOA (major histocompatibility complex, class II, DO alpha) | SID363993325 | -0.117 | 1.53 | -0.0961 | 0.0981 | -0.319 |
| ATP5F1D (ATP synthase F1 subunit delta) | SID363992910 | 0.165 | 4.89 | 0.191 | 0.256 | 0.0741 |
| SERPINB9 (serpin family B member 9) | SID363995159 | 0.387 | 1.61 | 0.233 | 0.562 | 0.492 |
| RASSF1 (Ras association domain family member 1) | SID363997882 | 0.344 | 2.4 | 0.191 | 0.42 | 0.0702 |
| TFAM (transcription factor A, mitochondrial) | SID363994334 | -0.0411 | 2.15 | 0.171 | 0.00531 | -0.122 |
| KRI1 (KRI1 homolog) | SID364002614 | -0.33 | 2.26 | -0.427 | -0.483 | -0.249 |
| GLI1 (GLI family zinc finger 1) | SID363996189 | 0.656 | 4.05 | 0.766 | 0.533 | 0.879 |
| OR8B8 (olfactory receptor family 8 subfamily B member 8) | SID363998268 | 0.669 | 2.82 | 0.776 | 0.702 | 0.642 |
| DNASE1L2 (deoxyribonuclease 1 like 2) | SID363992646 | -0.484 | 2.01 | -0.226 | -0.646 | -0.758 |
| NRL (neural retina leucine zipper) | SID363997003 | 0.417 | 2.14 | 0.413 | 0.346 | 0.492 |
| PWWP3A (PWWP domain containing 3A, DNA repair factor) | SID364004228 | 0.479 | 1.79 | 0.402 | 0.405 | 0.14 |
| AVP (arginine vasopressin) | SID363991813 | 0.676 | 1.51 | 0.454 | 0.605 | 0.8 |
| INTS8 (integrator complex subunit 8) | SID364000594 | -0.329 | 6.27 | -0.426 | -0.297 | -0.238 |
| IRF2BPL (interferon regulatory factor 2 binding protein like) | SID364002824 | 0.249 | 1.12 | 0.333 | -0.361 | 0.186 |
| NOS2 (nitric oxide synthase 2) | SID363991942 | 0.0189 | 1.95 | -0.0347 | 0.413 | -0.445 |
| PCLAF (PCNA clamp associated factor) | SID363999067 | -0.692 | 1.3 | -0.55 | -0.184 | -0.357 |
| TRIP6 (thyroid hormone receptor interactor 6) | SID363994421 | -0.521 | 2.32 | -0.269 | -0.786 | -0.544 |
| IL12B (interleukin 12B) | SID363993388 | -0.102 | 1.74 | -0.221 | -0.166 | 0.0405 |
| SNX25 (sorting nexin 25) | SID364003722 | 0.103 | 2.05 | -0.382 | 0.18 | 0.655 |
| ZNF197 (zinc finger protein 197) | SID363997728 | -0.514 | 2.16 | -0.717 | 0.155 | -0.135 |
| KLF2 (KLF transcription factor 2) | SID363999996 | 0.189 | 2.71 | 0.351 | 0.24 | 0.243 |
| MSH5 (mutS homolog 5) | SID363993619 | 0.36 | 2.41 | 0.0483 | 0.232 | 0.3 |
| PAH (phenylalanine hydroxylase) | SID363991610 | -0.567 | 1.66 | -0.798 | -0.429 | -0.429 |

Reformatted: 3 of the entries above.
gene knocked down | PubChem SID | mean correlation with KSR1 profile | mean distance from KSR1 profile | KSR1 correlation, replicate 1 | KSR1 correlation, replicate 2 | KSR1 correlation, replicate 3
NRL (neural retina leucine zipper) | SID363997003 | 0.417 | 2.14 | 0.413 | 0.346 | 0.492
PWWP3A (PWWP domain containing 3A, DNA repair factor) | SID364004228 | 0.479 | 1.79 | 0.402 | 0.405 | 0.14
AVP (arginine vasopressin) | SID363991813 | 0.676 | 1.51 | 0.454 | 0.605 | 0.8
